From WO2007042289A2 (dated 2007)
These are yes or no findings as the source states them, for the method shown. Binding can be weak; no strength is given.

What follows are binders tested against T1, purified EGFR (Sigma) (human, UniProt P00533 25-1210, limits assumed).
T1 construct: Bought; purified from human A431 cells; also called solid phase coated EGFR

| binding | Binder |
| --- | --- |
| binds | PMP11C9 (VHH) VHH: EVQLVESGGGLVQAGASLRLSCAASGRYFSDYNMAWFRQAPGKEREFVAHISWLGGRTYYRDSVKGRFTISRDNAKDTVYLQMNSLKPEDTAVYSCAAGSPYGTELPYTRIEQYAYWGQGTQVTVSS |
| binds | 27-1-H7 (VHH) VHH: EVQLVESGGGLVQAGGSLRLSCAASGRGAWAWFRQAPGKEREFVGGLSWSADSTYYADSVKGRFTISRDNAKNTVFLQMTNLKADDTAVYYCAAHRRPFASVFTTTRMYDYWGPGTQVTVSS |
| binds | PMP7E12 (VHH, Anti-EGFR Nanobody) VHH: EVQLVESGGGLVQAGGSLRLSCTASGRTFENNAMAWFRQAAGKEREFVAGFSGSGGATYYAHSVEGRFTISRDNAKNTVDLQMNSLSLEDTAVYLCAARRKSGEVVFTIPARYDYWGQGTQVTVSS |
| binds | PMP9C1 (VHH, Anti-EGFR Nanobody; tag not described; also called Nanobody family X; Type C Nanobody) VHH: EVQLVESGGGLVQAGGSLRLSCAASGRTFSGFAMGWFRQAPGKEREFVAAISWSGGSLLYVDSVKGRFTISRDNAKNTVHLQMNSLKPGDTAVYYCAAMVGPPPRSLDYGLGNHYEYDYWGQGTQVTVSS |
| binds | PMP8B5 (VHH) VHH: EVQLVESGGGLVQAGGSLRVSCVASIRSFSSYVVGWFRQAPGKDREFVAGIAWGDGITYYADSVKGRFTISRDHAKNTAYLQMNSLRPEDTAVYYCAVRPGMIITTIQATYGFWGQGTQVTVSS |
| binds | PMP9A7 (VHH) VHH: EVQLVESGGGLVQAGGSLRLSCAVSGRTFSGDVMGWFRQAPGKEREFVAGFSRSTSTTHYADSVKGRFTISGDNAKNTVYLQMNSLKPEDTAVYYCAANSRSSWVIFTIKGQYDRWGQGTQVTVSS |
| binds | PMP11H6 (VHH) VHH: AVQLVESGGGLVQAGGSLRLSCAASGRTFSTYTMAWFRQAPGKEREFVQGISRSDGGTYDADSVKGRFTISRDNAKNTVYLQMNSLKPEDTAVYFCAAANEYWVYVNPNRYTYWGRGTQVTVSS |
